Data reported in paper PMC4267622, “Pin1-mediated Sp1 phosphorylation by CDK1 increases Sp1 stability and decreases its DNA-binding activity during mitosis” (Nucleic Acids Research, 2014).
These are yes or no findings as the source states them, for the method shown. Binding seen in cells or lysates may run through a third protein. Here binding means that the protein was enriched with, or labelled near, the bait; the list need not be complete.

The chains behind the UniProt entries cited, without tags or fusion partners. Residues count along the entry.
UniProt P11440: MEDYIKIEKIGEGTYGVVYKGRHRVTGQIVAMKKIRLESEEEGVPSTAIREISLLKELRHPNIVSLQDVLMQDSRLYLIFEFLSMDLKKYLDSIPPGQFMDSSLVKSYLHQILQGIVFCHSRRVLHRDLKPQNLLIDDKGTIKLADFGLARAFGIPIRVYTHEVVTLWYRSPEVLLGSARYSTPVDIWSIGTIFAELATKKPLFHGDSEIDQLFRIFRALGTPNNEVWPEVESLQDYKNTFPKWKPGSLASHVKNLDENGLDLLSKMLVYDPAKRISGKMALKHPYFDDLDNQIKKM
UniProt P11276, residues 33-2477: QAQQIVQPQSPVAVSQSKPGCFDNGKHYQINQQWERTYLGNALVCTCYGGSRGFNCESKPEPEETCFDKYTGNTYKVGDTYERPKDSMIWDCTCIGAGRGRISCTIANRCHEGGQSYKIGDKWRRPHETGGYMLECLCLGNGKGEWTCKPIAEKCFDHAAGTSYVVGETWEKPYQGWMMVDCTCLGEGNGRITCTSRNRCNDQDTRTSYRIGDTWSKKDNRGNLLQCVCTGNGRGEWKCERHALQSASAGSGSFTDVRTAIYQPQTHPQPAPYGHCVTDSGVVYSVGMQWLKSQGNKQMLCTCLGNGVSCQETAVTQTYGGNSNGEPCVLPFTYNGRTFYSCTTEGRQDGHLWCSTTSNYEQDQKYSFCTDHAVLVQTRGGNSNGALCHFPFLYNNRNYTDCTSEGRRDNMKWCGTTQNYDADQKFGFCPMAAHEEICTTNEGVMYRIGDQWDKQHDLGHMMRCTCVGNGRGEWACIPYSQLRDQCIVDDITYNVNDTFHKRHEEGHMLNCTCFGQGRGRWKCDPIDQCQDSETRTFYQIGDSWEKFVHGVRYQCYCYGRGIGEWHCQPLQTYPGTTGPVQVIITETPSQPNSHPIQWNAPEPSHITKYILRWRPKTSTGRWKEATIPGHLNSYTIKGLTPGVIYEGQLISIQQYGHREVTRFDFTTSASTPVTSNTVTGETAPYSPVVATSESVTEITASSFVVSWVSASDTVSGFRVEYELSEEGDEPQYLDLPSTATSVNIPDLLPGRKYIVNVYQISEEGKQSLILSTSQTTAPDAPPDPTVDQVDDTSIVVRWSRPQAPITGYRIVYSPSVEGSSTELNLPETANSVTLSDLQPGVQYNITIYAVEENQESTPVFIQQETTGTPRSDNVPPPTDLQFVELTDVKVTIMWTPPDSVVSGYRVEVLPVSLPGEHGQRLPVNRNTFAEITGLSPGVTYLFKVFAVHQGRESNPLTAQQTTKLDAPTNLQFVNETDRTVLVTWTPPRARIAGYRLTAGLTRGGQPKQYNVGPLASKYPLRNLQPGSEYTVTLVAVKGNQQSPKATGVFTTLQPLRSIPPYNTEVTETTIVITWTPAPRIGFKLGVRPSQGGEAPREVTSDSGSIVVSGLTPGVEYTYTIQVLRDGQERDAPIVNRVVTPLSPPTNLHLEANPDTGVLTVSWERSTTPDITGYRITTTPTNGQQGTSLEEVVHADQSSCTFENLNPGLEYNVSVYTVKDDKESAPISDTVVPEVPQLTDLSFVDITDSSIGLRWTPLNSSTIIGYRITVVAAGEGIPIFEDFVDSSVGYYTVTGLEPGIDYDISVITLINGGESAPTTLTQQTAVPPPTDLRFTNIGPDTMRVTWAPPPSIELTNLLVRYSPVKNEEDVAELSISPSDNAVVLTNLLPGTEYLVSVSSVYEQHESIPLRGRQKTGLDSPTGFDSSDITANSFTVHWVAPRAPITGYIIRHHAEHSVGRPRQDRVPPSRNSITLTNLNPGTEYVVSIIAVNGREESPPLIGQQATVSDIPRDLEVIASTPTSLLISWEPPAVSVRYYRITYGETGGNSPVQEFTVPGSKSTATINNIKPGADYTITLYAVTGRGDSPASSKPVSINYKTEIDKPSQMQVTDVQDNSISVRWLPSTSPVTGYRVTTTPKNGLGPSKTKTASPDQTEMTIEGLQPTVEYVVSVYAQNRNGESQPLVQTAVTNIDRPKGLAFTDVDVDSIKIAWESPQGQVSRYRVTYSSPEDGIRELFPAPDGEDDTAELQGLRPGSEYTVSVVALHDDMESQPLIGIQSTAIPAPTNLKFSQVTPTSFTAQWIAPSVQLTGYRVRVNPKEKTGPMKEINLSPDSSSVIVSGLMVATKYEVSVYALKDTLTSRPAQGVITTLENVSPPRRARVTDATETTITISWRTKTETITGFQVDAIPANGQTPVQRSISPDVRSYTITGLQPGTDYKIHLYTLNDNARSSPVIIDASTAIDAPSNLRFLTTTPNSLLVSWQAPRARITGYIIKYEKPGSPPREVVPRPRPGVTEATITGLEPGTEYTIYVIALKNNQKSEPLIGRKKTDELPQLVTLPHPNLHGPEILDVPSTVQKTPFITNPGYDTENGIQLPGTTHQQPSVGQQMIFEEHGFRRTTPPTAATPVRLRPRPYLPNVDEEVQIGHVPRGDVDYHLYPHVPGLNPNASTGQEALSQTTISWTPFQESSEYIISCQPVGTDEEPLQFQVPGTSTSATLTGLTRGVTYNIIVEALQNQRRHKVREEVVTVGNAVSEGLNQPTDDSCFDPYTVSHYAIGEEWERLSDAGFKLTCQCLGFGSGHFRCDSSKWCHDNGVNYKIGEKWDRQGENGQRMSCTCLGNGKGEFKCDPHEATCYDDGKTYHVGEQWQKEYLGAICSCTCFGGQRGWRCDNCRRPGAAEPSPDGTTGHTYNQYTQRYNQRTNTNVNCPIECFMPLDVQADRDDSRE
UniProt Q9WV02: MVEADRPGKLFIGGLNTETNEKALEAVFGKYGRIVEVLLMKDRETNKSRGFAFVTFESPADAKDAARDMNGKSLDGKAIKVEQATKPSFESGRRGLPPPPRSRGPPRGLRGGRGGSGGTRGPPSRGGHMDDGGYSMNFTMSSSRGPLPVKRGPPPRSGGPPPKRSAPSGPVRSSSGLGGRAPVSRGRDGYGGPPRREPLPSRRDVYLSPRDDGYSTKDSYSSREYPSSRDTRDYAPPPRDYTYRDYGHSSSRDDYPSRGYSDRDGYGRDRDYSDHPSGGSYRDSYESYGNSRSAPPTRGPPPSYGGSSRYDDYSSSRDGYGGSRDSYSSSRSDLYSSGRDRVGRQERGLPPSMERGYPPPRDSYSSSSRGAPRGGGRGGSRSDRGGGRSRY
UniProt Q61545: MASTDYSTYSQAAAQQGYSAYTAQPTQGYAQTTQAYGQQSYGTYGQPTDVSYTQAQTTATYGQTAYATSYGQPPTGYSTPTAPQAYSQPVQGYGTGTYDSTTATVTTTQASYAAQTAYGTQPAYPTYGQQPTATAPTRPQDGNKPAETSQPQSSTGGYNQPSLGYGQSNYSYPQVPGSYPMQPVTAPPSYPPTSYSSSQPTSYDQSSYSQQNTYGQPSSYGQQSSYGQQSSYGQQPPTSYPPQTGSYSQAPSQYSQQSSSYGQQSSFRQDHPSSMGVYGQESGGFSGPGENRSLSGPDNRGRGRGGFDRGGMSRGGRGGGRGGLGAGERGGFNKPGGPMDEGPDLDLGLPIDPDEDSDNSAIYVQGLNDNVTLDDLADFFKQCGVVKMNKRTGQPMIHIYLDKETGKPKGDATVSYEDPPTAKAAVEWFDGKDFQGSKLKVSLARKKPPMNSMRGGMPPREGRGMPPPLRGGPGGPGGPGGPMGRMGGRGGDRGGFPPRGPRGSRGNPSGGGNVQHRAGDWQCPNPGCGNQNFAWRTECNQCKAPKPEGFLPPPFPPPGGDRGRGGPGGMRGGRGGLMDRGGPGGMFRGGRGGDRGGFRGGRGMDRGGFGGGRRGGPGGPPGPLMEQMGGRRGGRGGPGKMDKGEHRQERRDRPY
UniProt E9Q7G0: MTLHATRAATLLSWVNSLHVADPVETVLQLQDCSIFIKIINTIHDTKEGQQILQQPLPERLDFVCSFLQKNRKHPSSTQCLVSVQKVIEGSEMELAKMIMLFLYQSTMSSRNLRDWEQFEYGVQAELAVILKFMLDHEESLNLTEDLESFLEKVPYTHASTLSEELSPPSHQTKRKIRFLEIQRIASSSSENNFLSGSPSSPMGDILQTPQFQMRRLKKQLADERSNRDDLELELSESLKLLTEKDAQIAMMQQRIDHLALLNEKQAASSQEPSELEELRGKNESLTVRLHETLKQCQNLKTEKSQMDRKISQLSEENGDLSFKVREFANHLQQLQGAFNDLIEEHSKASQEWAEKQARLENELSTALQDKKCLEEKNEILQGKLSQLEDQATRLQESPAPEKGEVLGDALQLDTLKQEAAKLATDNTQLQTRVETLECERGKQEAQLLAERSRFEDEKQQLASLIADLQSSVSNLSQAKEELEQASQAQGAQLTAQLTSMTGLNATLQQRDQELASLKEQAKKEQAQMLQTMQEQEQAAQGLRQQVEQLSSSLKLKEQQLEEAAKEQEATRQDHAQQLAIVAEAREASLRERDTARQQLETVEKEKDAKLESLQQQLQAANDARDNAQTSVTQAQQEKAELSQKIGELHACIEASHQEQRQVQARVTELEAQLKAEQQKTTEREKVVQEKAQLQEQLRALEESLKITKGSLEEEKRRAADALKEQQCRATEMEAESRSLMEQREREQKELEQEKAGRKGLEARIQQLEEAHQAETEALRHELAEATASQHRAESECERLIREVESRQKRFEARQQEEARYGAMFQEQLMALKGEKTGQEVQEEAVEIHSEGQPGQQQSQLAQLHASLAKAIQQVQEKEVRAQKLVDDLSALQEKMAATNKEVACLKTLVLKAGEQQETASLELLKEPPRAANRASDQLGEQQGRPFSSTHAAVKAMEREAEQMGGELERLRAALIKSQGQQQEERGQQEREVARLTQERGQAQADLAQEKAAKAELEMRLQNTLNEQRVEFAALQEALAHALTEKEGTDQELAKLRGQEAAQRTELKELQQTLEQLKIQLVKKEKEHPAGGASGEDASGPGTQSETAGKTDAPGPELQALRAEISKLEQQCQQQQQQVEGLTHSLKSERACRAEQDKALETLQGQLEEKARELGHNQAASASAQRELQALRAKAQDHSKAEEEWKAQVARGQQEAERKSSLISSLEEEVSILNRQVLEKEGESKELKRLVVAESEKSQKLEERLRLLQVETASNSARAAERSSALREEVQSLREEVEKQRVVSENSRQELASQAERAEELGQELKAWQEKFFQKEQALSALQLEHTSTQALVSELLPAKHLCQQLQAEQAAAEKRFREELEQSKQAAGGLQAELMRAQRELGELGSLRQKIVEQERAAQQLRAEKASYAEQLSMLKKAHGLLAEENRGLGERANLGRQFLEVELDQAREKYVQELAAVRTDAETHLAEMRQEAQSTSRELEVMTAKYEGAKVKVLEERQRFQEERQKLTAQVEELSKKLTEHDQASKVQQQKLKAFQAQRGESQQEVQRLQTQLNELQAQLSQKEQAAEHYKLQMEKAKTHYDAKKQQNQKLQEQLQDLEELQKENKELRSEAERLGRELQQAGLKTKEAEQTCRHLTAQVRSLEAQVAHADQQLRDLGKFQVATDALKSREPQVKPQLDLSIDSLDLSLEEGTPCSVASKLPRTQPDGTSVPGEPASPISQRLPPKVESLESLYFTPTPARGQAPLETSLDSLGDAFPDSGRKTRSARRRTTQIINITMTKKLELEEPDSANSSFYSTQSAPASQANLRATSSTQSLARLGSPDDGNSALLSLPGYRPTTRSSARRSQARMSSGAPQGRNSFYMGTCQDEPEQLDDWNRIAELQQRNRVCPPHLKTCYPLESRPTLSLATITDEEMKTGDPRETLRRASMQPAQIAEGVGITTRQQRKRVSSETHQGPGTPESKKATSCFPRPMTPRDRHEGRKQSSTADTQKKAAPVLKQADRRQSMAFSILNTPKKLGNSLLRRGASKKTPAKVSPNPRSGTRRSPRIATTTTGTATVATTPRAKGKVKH

Target: CDK1 (endogenous, MEF) (mouse (endogenous in MEFs)) (UniProt P11440)
Assay: affinity purification with mass spectrometry; anti-CDK1 immunoprecipitation from mitotic lysates of MEF and MEF Pin1-/- cells, silver staining, bands increased in MEFs excised and identified by mass spectrometry

Row | binding | Substance
1 | binds | fibronectin 1 (Fn1) (from UniProt P11276 33-2477)
2 | binds | RNA-binding motif protein, X chromosome (RBMX) (from UniProt Q9WV02 1-391)
3 | binds | Ewing sarcoma breakpoint region 1 (EWSR1) (from UniProt Q61545 1-655)
4 | binds | nuclear mitotic apparatus protein (NuMA) (from UniProt E9Q7G0 1-2094)
